PubChem BioAssay AID504444 (National Center for Advancing Translational Sciences (NCATS), 2011)
Several values for one entry are separate records, joined by “and”; a condition that tells them apart may be missing. Equal entries are not always repeated. About 7,500 (2.1%) of roughly 360,000 compounds were called active. Inconclusive means that the source gave no clear call. Such entries were picked first, then a sample of the others. The call rests on the fitted dose curve; in most records, active means well fitted inhibition curve with a large enough effect; inconclusive means small, poorly fitted or top-dose-only effect, or effect the other way; inactive means flat fitted curve, though single readings scatter. Potencies of inconclusive entries are doubtful fits and often do not repeat.

Assay: Nrf2 qHTS screen for inhibitors; further: nearly all actives have a fitted effect of over 60% in size
Conditions: A549 ARE-Fluc reporter, luciferase luminescence, 18-24 h; activity change, negative = inhibition: at 46 µM (top of the series)
Summary of the method: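 Two sequential reads on A549 ARE_Fluc cells exposed to compound for 18-24 h: a CellTiter-Fluor fluorescence read for viability, then a luciferase luminescence read for Nrf2/ARE activity.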
On the % scale 0 is the no-effect control and ±100 the full control effect; potency means the concentration at half of the fitted maximal effect.

Compound | Potency | activity change, negative = inhibition
c1ccc(-c2nnc(-c3ccco3)o2)cc1 | inconclusive: 7.08 µM [activator, partial curve] | –
C=CCn1c(SCc2ccc(C(=O)Nc3nccs3)cc2)nnc1-c1ccc(C)c(Cl)c1 | active: 20.6 µM | –
Cc1cccc(NC(=O)Nc2ccc(F)cc2)n1 | inactive and inconclusive: 6.51 µM [activator, partial curve] | –
Cc1nc2cc(C(=O)O)ccc2s1 | inconclusive: 11.6 µM [activator, partial curve, poor fit] | –
CCc1ccc(CNc2ccc3c(c2)ncn3CC)cc1 | inconclusive: 6.51 µM [activator, single point] | –
COc1ccc(C(=O)Nc2ccccc2N2CCCCC2)cc1[N+](=O)[O-] | inconclusive: 32.6 µM [falling, partial curve, poor fit] | –
CCOC(=O)Cc1csc(/N=C/c2c(O)n(-c3ccc(C)cc3C)c(=O)c3ccccc23)n1 | inconclusive: 29.1 µM [falling, single point] | –
Cc1cc(N2CCN(c3cccc(C)c3C)CC2)n2cnnc2n1 | inconclusive: 32.6 µM [falling, single point] | –
COc1ccc(C(=O)NCC(=O)N2CC=C(c3ccccc3)CC2)cc1OC | inconclusive: 32.6 µM [falling, partial curve, poor fit] | –
C=CCn1cc(/C=C/c2cc[n+](C)cc2)c2ccccc21 | active: 2.31 µM | –
CCOC(=O)Cc1nnc(NC(=O)c2ccco2)s1 | inconclusive: 10.3 µM [activator, partial curve] | –
O=C(Oc1ccc(/C=N/NC(=O)c2ccccn2)cc1)c1ccc(Br)cc1 | inconclusive: 2.31 µM [activator, partial curve] | –
O=C(CN1CCN(C(=O)c2ccccc2Cl)CC1)Nc1cccc(S(=O)(=O)N2CCCC2)c1 | inconclusive: 18.4 µM [falling, partial curve, poor fit] | –
Cc1nnc2sc(-c3ccc(NC(=O)c4ccc(-c5ccc(Cl)cc5Cl)o4)cc3)nn12 | inconclusive: 29.1 µM [falling, single point] | –
O=C(Oc1c(-c2ccccc2)oc2ccccc2c1=O)c1ccccc1 | inconclusive: 29.1 µM [falling, single point] | –
O=C(C=P(c1ccccc1)(c1ccccc1)c1ccccc1)c1ccccc1-c1ccccc1C(=O)C=P(c1ccccc1)(c1ccccc1)c1ccccc1 | active: 2.06 µM | –
COc1cccc(NC(=S)N(CCc2ccc(OC)c(OC)c2)Cc2ccccn2)c1 | inconclusive: 0.103 µM [falling, full curve, poor fit] | –
Cc1c(C(=O)Nc2ccncc2)sc2nc(-c3ccccc3)cn12 | active: 10.3 µM | –
C=CCn1c(SCC(=O)O)nnc1-c1ccc(C(C)(C)C)cc1 | – | inactive: -6.74%
O=C(NCCc1ccccc1)c1ccccc1Cl | inconclusive: 0.116 µM [activator, full curve, poor fit] | –
Oc1ccc(F)c2cccnc12 | – | inactive: 4.2%
COc1cccc(/C=N/n2c(=O)[nH]c3ccccc32)c1OC | inconclusive: 18.4 µM [activator, partial curve] | –
CCN(CC)CCOc1cc2c(nn1)Oc1ccccc1N2C | – | inactive: 3.83%

Compound | Potency | activity change, negative = inhibition
COc1ccc(C(=O)c2ccc(CC(=O)O)s2)cc1 | inconclusive: 20.6 µM [falling, partial curve] | –
Cc1cc(C)n(CC(O)COc2ccc(F)cc2)n1 (stereo not drawn) | inconclusive: 29.1 µM [falling, partial curve, poor fit] | –
C/C(=N\Nc1ccc([N+](=O)[O-])cc1)c1ccco1 | inconclusive: 9.2 µM [activator, partial curve] | –
O=C1C=CN2CCCCC2CC1 (stereo not drawn) | inconclusive: 16.4 µM [falling, partial curve, poor fit] | –
O=C(Nc1ccc2c(c1)OCO2)c1ccc(Br)o1 | inconclusive: 3.26 µM [activator, full curve] | –
C[n+]1ccc(/C=N/Nc2nc(Cl)c(C#N)c(Cl)c2Cl)cc1 | – | inactive: -9.43%
CSc1n[nH]c(=O)n1C1CCCCC1 | inconclusive: 25.9 µM [falling, single point] | –
Cc1nc(-c2nc(-c3c(C(=O)NN)noc3C)cs2)cs1 | inconclusive: 8.2 µM [activator, partial curve] | –
O=C(Nc1nc2c(s1)CCCC2)c1cccnc1 | inconclusive: 2.06 µM [activator, full curve] | –
Cc1cn(C2CC3OCC(NC(=O)C(Cc4ccccc4)NC(=O)OC(C)(C)C)C3O2)c(=O)[nH]c1=O (stereo not drawn) | – | inactive: 10.7%
O=C(Cc1ccsc1)Nc1ccc(Cl)cc1Cl | – | inactive: -10.1%
O=C(Nc1ccc2ccccc2c1)c1ccccc1[N+](=O)[O-] | inconclusive: 7.31 µM [activator, partial curve] | –
CCCN(Cc1cccs1)C(=O)Nc1cc(Cl)ccc1C | inconclusive: 29.1 µM [activator, single point] | –
CCN(CC)C(=O)[C@H]1C[C@H](CC(=O)NCc2cccc(C(F)(F)F)c2)C(=O)N2CCc3c([nH]c4cc(-c5ccco5)ccc34)[C@]12C | active: 18.4 µM | –
C/C(=N\NC(=O)c1cc2c(s1)CCC(C)C2)c1ccc[nH]1 (stereo not drawn) | inconclusive: 2.91 µM [activator, full curve, poor fit] | –
O=C(C1CCC(N2C(=O)C3CC=CCC3C2=O)CC1)N1CCCCC1 (stereo not drawn) | inconclusive: 23.1 µM [falling, single point] | –
CCc1noc(N)c1C(=O)Nc1ccc(F)c(Cl)c1 | inconclusive: 29.1 µM [falling, single point] | –
Cc1ccc2[nH]c3c(=O)n(CC(=O)NCc4ccco4)ncc3c2c1 | inconclusive: 25.9 µM [activator, single point] | –
O=c1[nH]c(C2CCN(S(=O)(=O)c3ccccc3C(F)(F)F)CC2)nc2c1nnn2Cc1ccccc1 | inconclusive: 29.1 µM [falling, single point] | –
CCNc1nc(Sc2ccc(C)cc2)cc(C(F)(F)F)n1 | – | inactive: 0.477%
COc1ccc(-n2nc([N+](=O)[O-])c(=NC3CCN(Cc4ccccc4)CC3)n2O)cc1 | inconclusive: 14.6 µM [activator, partial curve] | –
Cc1ccc(NC(=O)CCOc2ccccc2)cc1 | inconclusive: 5.17 µM [activator, partial curve] | –
CCCn1c(=O)c2ccccc2n2c(SCCOc3ccc(OC)cc3)nnc12 | inconclusive: 0.082 µM [falling, full curve, poor fit] | –

Gathered by group, the compounds so far with a halogen (16)
Compound | Potency | activity change, negative = inhibition
C=CCn1c(SCc2ccc(C(=O)Nc3nccs3)cc2)nnc1-c1ccc(C)c(Cl)c1 | active: 20.6 µM | –
Cc1cccc(NC(=O)Nc2ccc(F)cc2)n1 | inactive and inconclusive: 6.51 µM [activator, partial curve] | –
O=C(Oc1ccc(/C=N/NC(=O)c2ccccn2)cc1)c1ccc(Br)cc1 | inconclusive: 2.31 µM [activator, partial curve] | –
O=C(CN1CCN(C(=O)c2ccccc2Cl)CC1)Nc1cccc(S(=O)(=O)N2CCCC2)c1 | inconclusive: 18.4 µM [falling, partial curve, poor fit] | –
Cc1nnc2sc(-c3ccc(NC(=O)c4ccc(-c5ccc(Cl)cc5Cl)o4)cc3)nn12 | inconclusive: 29.1 µM [falling, single point] | –
O=C(NCCc1ccccc1)c1ccccc1Cl | inconclusive: 0.116 µM [activator, full curve, poor fit] | –
Oc1ccc(F)c2cccnc12 | – | inactive: 4.2%
Cc1cc(C)n(CC(O)COc2ccc(F)cc2)n1 (stereo not drawn) | inconclusive: 29.1 µM [falling, partial curve, poor fit] | –
O=C(Nc1ccc2c(c1)OCO2)c1ccc(Br)o1 | inconclusive: 3.26 µM [activator, full curve] | –
C[n+]1ccc(/C=N/Nc2nc(Cl)c(C#N)c(Cl)c2Cl)cc1 | – | inactive: -9.43%
O=C(Cc1ccsc1)Nc1ccc(Cl)cc1Cl | – | inactive: -10.1%
CCCN(Cc1cccs1)C(=O)Nc1cc(Cl)ccc1C | inconclusive: 29.1 µM [activator, single point] | –
CCN(CC)C(=O)[C@H]1C[C@H](CC(=O)NCc2cccc(C(F)(F)F)c2)C(=O)N2CCc3c([nH]c4cc(-c5ccco5)ccc34)[C@]12C | active: 18.4 µM | –
CCc1noc(N)c1C(=O)Nc1ccc(F)c(Cl)c1 | inconclusive: 29.1 µM [falling, single point] | –
O=c1[nH]c(C2CCN(S(=O)(=O)c3ccccc3C(F)(F)F)CC2)nc2c1nnn2Cc1ccccc1 | inconclusive: 29.1 µM [falling, single point] | –
CCNc1nc(Sc2ccc(C)cc2)cc(C(F)(F)F)n1 | – | inactive: 0.477%

(more compounds)

Compound | Potency | activity change, negative = inhibition
Cn1c(-c2cccc([N+](=O)[O-])c2)[n+](C)c2ccccc21 | inconclusive: 13 µM [falling, partial curve, poor fit] | –
Cc1c(C(=O)Nc2ccc(F)cc2)cn2c(nc3ccccc32)c1C#N | inconclusive: 29.1 µM [falling, single point] | –
CCCCC(O)C(=O)Nc1cc(C(F)(F)F)ccc1Cl (stereo not drawn) | – | inactive: 14.1%
COc1cccc(C2N(c3cccc(Cl)c3)C(=O)C3CCCN32)c1OC (stereo not drawn) | inconclusive: 16.4 µM [falling, partial curve] | –
CC(=O)Nc1sc(C)c(C)c1C(=O)OCCOc1ccccc1 | inconclusive: 18.4 µM [activator, partial curve] | –
CCOc1ccccc1N1CCN(CC(=O)Nc2ccnn2C2CCCC2)CC1 | inconclusive: 23.1 µM [falling, single point] | –
COc1ccc(C(=O)CSc2nc(C)cc(C)c2C(=O)Nc2ccccc2C)cc1 | – | inactive: -19%
O=C(CC1OC(=O)c2ccccc21)Nc1ccc(Cl)c(S(=O)(=O)N2CCCCC2)c1 (stereo not drawn) | inconclusive: 20.6 µM [falling, single point] | –
COC(=O)c1ccc(C(c2c(C)n(C)n(-c3ccccc3)c2=O)c2c(C)n(C)n(-c3ccccc3)c2=O)cc1 | inconclusive: 23.1 µM [activator, single point] | –
COc1ccc(Cl)cc1-n1nnc(-c2nc(-c3ccccc3)no2)c1C | inconclusive: 4.61 µM [activator, partial curve] | –
CC(C)CCOP(=O)(c1ccc(N(C)C)cc1)C(O)c1ccccc1F (stereo not drawn) | inconclusive: 14.6 µM [falling, partial curve, poor fit] | –
COc1ccc(-c2nc3cc(C(C)C)ccc3o2)cc1NC(=O)c1ccccc1[N+](=O)[O-] | inconclusive: 13 µM [activator, partial curve] | –
COC(=O)c1cc(Br)c(=O)n(-c2ccccc2F)c1 | inconclusive: 18.4 µM [activator, partial curve, poor fit] | –
CCOc1ccccc1CNC(=O)CCn1c(=O)c2cccn2c2ccc(F)cc21 | – | inactive: 16.1%
CN(C)c1ccc(-n2cc3c(=O)n(C)c(=O)n(C)c3c2)cc1 | – | inactive: -22.1%
Cc1ccc(CNc2nc(-c3ccco3)nn2S(C)(=O)=O)cc1 | inconclusive: 7.31 µM [activator, partial curve, poor fit] | –
C=CCOC(=O)c1[nH]c2c(c1C)C(=O)CC(c1cc(OC)c(OC)c(OC)c1)C2 (stereo not drawn) | active: 10.3 µM | –
CN(C)c1ccc(C=Cc2cnccn2)cc1 | inconclusive: 1.84 µM [activator, full curve] | –
CN(C)S(=O)(=O)c1cccc(NC(=S)N/N=C/c2cccc(O)c2)c1 | – | inactive: 3.74%
Cn1c(N)c(C(=O)COC(=O)c2ccccc2C(=O)c2ccc(Cl)c([N+](=O)[O-])c2)c(=O)n(C)c1=O | – | inactive: 14.3%
Cc1cc2nc(N3CCN(C(=O)c4cccs4)CC3)sc2cc1C | inconclusive: 5.17 µM [activator, single point] | –
CCOc1ccc(N(Cc2cc3ccc(C)cc3[nH]c2=O)S(=O)(=O)c2ccccc2)cc1 | – | inactive: -1.44%

3 entries already listed, sorted by length of the SMILES, falling.
Compound | Potency | activity change, negative = inhibition
O=C(CN1CCN(C(=O)c2ccccc2Cl)CC1)Nc1cccc(S(=O)(=O)N2CCCC2)c1 | inconclusive: 18.4 µM [falling, partial curve, poor fit] | –
C=CCn1c(SCc2ccc(C(=O)Nc3nccs3)cc2)nnc1-c1ccc(C)c(Cl)c1 | active: 20.6 µM | –
COC(=O)c1cc(Br)c(=O)n(-c2ccccc2F)c1 | inconclusive: 18.4 µM [activator, partial curve, poor fit] | –
